Laboratory results: paper doi:10.1101/2023.07.24.550339
No constants are given. Whether binding was seen depends on the method and setting. For some of these results: In cells and extracts the contact can be indirect. Some binding calls cover weakened binding; strength is not graded here. Values belong to the substance of their own block, whether it stands above or below them.

Columns and labels:
LexA-Rab35Q67L (human) = LexA-Rab35Q67L (human) (UniProt Q15286); experiment: two-hybrid
LexA-Rab35S22N (human) = LexA-Rab35S22N (human) (UniProt Q15286); experiment: two-hybrid
LexA-Rab35WT (human) = LexA-Rab35WT (human) (UniProt Q15286); experiment: two-hybrid
[1] = target: Rab35BD (MiniBAR225-553), recombinant (human) (UniProt O15063); experiment: SAXS
[2] = target: Rac1BD-Rab35BDA461R (MiniBAR70-553 A461R), recombinant (human) (UniProt O15063); experiment: SEC
[3] = target: Rac1BDA140V-Rab35BD (MiniBAR70-553 A140V), recombinant (human) (UniProt O15063); experiment: SEC
[4] = target: Rab35BD (MiniBAR225-553), recombinant (human) (UniProt O15063); experiment: SEC-MALS
[5] = target: Rac1BD-Rab35BD (MiniBAR70-553), recombinant (human) (UniProt O15063); experiment: SEC-MALS
[6] = target: Rac1BD-Rab35BD (MiniBAR70-553), recombinant (human) (UniProt O15063); experiment: SEC
3xFLAG-Rab35Q67L = 3xFLAG-Rab35Q67L (UniProt Q15286); experiment: co-IP

binding (LexA-Rab35Q67L (human)): no binding
Substance: GAD-MiniBAR full length A461R (from UniProt O15063 1-1070)

binding (LexA-Rab35Q67L (human)): binds
binding (LexA-Rab35S22N (human)): no binding
binding (LexA-Rab35WT (human)): binds
Substance: GAD-MiniBAR Rab35BD (MiniBAR225-553) (from UniProt O15063 225-553) (domain or fragment)

binding [2]: no binding
binding [3]: binds
binding [4]: binds
binding [5]: binds
Substance: Rab35-GPPNHP, recombinant (from UniProt Q15286 1-201)

binding [6]: binds
Substance: His-tagged-Rab35-GPPNHP (from UniProt Q15286 1-201)

The next lines start with the substance.

Substance: GAD-MiniBAR full length (from UniProt O15063 1-1070)
binding (LexA-Rab35Q67L (human)): binds
binding (LexA-Rab35S22N (human)): no binding

Substance: Rab35BD (MiniBAR225-553), recombinant (from UniProt O15063 225-553) (domain or fragment)
binding [1]: no binding

Substance: endogenous MiniBAR (from UniProt O15063 1-1070)
binding (3xFLAG-Rab35Q67L): binds
